Assay results from patent US6114314A (priority 1994, dated 2000).
Where two headings read alike, the source gives them in different places.

Tested on: tumour

CCO [ethyl alcohol]
dispersion of ethyl alcohol throughout the tumour (carried by hyaluronic acid and/or salts thereof): dispersion of the ethyl alcohol throughout the tumour
dispersion of ethyl alcohol throughout the tumour (injected directly, without hyaluronic acid): not dispersed throughout the tumour
